Data published in article PMC8195999.

Protein sequences, listed by entry. Tags and fused reporters are not part of them.
UniProt O54917: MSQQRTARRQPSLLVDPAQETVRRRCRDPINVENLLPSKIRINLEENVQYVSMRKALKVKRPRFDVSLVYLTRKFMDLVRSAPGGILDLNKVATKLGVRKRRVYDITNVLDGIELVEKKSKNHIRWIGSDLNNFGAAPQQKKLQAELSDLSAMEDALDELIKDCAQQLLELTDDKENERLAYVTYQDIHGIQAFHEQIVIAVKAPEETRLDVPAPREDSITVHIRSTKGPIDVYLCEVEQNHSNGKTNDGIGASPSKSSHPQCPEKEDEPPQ
UniProt Q9Z148: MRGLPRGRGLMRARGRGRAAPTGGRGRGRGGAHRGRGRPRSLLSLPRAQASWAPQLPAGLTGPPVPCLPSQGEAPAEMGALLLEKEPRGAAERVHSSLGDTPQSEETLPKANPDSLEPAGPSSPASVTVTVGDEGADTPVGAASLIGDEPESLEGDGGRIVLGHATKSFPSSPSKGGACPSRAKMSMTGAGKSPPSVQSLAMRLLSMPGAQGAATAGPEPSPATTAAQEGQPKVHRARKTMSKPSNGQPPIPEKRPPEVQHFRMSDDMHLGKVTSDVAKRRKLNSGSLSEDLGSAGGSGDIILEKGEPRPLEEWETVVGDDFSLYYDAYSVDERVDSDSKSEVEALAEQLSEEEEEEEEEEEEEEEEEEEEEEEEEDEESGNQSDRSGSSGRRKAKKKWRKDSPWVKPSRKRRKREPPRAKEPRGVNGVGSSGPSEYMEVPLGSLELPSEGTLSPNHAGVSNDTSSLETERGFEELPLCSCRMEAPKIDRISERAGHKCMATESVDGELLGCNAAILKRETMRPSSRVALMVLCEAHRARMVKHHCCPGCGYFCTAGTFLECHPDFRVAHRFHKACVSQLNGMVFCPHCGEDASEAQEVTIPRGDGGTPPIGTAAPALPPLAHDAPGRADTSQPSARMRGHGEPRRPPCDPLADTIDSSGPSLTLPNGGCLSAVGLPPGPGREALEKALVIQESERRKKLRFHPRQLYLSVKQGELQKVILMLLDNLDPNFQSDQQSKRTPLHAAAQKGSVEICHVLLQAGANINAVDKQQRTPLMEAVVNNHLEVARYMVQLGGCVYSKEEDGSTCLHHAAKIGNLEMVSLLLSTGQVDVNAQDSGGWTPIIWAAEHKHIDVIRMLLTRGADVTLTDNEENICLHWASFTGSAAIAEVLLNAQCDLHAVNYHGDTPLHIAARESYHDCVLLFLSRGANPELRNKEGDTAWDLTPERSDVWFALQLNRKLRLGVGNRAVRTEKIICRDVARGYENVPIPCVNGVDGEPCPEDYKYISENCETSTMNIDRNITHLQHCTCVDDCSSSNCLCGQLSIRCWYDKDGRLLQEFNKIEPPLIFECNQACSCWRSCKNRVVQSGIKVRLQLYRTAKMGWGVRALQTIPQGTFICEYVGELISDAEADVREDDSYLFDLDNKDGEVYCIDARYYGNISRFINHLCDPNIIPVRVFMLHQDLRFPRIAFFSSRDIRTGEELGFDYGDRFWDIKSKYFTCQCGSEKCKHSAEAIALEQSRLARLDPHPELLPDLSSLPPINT
UniProt O09106: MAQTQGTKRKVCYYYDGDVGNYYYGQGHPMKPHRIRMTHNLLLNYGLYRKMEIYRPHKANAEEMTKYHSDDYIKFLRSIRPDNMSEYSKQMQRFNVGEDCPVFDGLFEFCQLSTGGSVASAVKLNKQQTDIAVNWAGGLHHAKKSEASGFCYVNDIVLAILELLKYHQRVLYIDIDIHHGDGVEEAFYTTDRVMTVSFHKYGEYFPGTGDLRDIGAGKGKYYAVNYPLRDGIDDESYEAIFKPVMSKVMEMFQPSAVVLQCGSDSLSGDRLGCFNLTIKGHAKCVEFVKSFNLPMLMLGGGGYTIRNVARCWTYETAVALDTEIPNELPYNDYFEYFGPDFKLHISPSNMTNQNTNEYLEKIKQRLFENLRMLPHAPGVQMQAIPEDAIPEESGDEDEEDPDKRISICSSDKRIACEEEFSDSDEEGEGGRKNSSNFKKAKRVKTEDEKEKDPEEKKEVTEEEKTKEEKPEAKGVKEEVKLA
UniProt P28574: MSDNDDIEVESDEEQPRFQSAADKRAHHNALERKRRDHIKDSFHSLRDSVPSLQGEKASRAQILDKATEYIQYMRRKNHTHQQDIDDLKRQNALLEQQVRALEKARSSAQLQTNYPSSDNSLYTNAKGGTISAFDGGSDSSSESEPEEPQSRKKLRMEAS
UniProt P70288: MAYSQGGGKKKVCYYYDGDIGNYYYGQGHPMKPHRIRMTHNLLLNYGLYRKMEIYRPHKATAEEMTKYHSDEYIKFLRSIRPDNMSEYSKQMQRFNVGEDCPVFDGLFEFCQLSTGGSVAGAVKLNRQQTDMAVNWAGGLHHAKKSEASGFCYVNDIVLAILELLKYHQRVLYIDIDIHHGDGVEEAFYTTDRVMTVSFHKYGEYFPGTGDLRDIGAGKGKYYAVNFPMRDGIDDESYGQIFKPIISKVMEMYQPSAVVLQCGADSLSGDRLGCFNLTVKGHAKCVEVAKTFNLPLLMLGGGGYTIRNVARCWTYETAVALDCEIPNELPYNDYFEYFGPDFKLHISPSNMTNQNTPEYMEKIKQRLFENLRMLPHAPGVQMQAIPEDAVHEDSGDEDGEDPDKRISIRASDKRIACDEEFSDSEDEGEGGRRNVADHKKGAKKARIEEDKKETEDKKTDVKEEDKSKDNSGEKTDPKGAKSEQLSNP
UniProt E9PVX6: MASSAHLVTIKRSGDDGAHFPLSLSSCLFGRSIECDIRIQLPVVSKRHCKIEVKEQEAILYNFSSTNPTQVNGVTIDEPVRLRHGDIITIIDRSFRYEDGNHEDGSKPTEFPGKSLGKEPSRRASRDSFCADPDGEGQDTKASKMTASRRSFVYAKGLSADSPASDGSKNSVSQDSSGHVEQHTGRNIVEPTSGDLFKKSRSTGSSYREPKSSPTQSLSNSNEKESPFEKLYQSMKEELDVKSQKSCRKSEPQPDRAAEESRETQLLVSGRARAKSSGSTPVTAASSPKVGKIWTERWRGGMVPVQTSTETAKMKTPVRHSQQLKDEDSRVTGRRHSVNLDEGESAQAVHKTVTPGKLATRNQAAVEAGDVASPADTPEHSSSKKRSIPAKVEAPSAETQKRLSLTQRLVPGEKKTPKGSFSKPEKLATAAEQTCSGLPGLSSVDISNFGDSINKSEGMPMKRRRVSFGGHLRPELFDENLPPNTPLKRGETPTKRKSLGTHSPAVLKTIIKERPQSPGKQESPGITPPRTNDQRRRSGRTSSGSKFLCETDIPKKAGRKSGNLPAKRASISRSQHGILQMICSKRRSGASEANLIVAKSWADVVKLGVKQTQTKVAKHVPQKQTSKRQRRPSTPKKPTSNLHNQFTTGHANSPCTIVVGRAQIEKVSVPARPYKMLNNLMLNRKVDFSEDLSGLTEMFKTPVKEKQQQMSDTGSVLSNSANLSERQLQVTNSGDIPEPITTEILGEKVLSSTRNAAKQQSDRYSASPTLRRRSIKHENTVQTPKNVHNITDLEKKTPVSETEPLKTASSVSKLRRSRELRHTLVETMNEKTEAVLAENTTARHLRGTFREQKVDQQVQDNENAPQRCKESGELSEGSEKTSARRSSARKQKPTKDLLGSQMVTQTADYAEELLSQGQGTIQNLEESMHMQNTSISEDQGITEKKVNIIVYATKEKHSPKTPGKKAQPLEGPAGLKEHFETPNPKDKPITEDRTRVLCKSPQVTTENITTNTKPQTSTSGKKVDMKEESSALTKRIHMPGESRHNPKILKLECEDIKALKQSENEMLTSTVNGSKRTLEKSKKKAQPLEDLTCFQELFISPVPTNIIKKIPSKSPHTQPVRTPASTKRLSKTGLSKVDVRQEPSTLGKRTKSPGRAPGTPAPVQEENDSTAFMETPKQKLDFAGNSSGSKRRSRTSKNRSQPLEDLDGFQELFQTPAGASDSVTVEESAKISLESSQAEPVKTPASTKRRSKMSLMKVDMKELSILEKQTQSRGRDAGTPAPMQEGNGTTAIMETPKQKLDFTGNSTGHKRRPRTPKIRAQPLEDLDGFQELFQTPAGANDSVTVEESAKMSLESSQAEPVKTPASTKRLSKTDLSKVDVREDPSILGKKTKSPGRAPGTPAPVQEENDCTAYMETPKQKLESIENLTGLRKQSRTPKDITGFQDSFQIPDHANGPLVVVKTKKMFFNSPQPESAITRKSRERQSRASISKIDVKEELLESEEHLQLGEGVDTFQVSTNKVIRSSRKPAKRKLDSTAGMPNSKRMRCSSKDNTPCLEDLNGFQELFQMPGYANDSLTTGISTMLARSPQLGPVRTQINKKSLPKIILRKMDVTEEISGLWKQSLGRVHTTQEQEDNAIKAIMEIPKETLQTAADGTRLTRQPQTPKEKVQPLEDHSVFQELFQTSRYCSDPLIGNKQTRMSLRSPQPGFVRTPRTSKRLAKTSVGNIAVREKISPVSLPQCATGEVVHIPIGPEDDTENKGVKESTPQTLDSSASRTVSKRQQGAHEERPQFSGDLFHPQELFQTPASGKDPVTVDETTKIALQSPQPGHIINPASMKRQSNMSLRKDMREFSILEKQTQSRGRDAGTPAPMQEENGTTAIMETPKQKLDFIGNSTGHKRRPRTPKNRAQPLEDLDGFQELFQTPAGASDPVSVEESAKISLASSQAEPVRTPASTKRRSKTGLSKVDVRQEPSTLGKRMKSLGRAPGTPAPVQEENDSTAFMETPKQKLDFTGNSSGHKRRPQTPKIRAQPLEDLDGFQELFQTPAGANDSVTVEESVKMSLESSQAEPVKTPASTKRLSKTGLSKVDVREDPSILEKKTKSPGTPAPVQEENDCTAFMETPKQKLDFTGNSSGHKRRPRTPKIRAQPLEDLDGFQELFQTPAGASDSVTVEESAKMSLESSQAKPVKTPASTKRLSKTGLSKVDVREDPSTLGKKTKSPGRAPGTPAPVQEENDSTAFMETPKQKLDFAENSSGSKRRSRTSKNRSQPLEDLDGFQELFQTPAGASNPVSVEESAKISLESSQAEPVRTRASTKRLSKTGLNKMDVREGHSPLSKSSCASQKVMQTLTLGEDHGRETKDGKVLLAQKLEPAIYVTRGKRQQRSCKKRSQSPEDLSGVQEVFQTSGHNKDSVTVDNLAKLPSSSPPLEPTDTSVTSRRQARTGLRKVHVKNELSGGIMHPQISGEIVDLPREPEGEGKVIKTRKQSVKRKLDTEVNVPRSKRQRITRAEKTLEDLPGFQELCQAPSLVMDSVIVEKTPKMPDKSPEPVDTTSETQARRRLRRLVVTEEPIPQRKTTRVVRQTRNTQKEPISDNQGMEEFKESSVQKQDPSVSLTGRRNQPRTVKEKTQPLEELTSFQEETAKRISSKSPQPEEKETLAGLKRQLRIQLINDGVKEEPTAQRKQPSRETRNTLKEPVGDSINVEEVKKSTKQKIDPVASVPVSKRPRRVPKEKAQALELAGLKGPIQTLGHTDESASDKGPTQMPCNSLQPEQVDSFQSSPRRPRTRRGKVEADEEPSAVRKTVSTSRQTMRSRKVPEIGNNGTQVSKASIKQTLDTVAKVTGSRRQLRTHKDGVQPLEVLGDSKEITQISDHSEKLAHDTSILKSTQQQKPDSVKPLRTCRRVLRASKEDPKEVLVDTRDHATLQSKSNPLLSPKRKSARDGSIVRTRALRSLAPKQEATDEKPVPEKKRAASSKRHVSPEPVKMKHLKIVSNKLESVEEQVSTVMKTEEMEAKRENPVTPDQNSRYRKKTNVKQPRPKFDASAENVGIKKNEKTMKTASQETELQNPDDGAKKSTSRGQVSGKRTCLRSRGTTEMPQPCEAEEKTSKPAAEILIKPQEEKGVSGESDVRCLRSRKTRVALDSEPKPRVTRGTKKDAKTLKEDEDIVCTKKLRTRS
UniProt O35730: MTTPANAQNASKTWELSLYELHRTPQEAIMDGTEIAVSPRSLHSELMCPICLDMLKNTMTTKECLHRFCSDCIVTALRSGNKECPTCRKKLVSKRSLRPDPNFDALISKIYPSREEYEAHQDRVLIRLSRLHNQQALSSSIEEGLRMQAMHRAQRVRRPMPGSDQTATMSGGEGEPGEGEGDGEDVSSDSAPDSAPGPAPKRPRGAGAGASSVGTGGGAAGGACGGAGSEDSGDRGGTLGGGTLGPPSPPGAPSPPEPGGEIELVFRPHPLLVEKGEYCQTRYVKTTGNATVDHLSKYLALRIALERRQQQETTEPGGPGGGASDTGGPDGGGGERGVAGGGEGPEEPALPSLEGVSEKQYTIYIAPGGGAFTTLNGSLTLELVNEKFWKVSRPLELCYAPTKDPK

Target: 3×HA-E2F6 (UniProt O54917)
Assay: affinity purification with mass spectrometry; anti-HA microbeads (mMACS, Miltenyi Biotec) on 1 mg nuclear extract of E14TG2a ESCs expressing 3×HA-E2F6 against control E14TG2a cells; nanoLC-MS/MS, spectral counts; enriched: fold change >2 and adjusted p-value < 0.05; n = 5

Row | Substance | binding
1 | DNMT1 (from UniProt P13864 1-1620) | no binding
2 | G9a (from UniProt Q9Z148 1-1263) | no binding
3 | HDAC1 (from UniProt O09106 1-482) | no binding
4 | MAX (from UniProt P28574 1-160) | binds
5 | SKT (from UniProt A2AQ25 1-1946) | binds

More lines, now with the values ahead:

Row | binding | Substance
6 | no binding | HDAC2 (from UniProt P70288 1-488)
7 | binds | KI-67 (from UniProt E9PVX6 1-3177)
8 | binds | L3MBTL2 (from UniProt P59178 1-703)
9 | binds | MGA (from UniProt A2AWL7 1-3003)
10 | binds | RING1A (from UniProt O35730 1-406)

These are yes or no findings as the source states them, for the method shown. In cells and extracts the contact can be indirect. A yes stands for co-enrichment or nearness to the bait. Other partners may have been found. A no says only that the protein was not detected with the bait.
